Test [1] deals with FLAG-tagged MYSM1-ΔMPN (human) (UniProt Q5VVJ2). The test can be described thus: co-IP; anti-FLAG immunoprecipitation (IgG control) from whole-cell extracts of HEK293 (Fig. 1B, EV1E) or MCF-7 (Fig. 1F) cells co-transfected with FLAG-MYSM1 (wild type or deletion mutants) and ERα; Fig. 1B: estrogen-depleted medium 48 h, then ethanol vehicle or E2 (100 nM) for 12 h; Protein A/G agarose, overnight, three rinses, immunoblot. (In general: Immunoblotting shows a protein as a band on a membrane.)

By UniProt entry, the sequences of proteins in these tests, tags left out. Where a name states a change or a piece, a line headed by the entry shows the natural chain unless it says otherwise.
UniProt Q5VVJ2: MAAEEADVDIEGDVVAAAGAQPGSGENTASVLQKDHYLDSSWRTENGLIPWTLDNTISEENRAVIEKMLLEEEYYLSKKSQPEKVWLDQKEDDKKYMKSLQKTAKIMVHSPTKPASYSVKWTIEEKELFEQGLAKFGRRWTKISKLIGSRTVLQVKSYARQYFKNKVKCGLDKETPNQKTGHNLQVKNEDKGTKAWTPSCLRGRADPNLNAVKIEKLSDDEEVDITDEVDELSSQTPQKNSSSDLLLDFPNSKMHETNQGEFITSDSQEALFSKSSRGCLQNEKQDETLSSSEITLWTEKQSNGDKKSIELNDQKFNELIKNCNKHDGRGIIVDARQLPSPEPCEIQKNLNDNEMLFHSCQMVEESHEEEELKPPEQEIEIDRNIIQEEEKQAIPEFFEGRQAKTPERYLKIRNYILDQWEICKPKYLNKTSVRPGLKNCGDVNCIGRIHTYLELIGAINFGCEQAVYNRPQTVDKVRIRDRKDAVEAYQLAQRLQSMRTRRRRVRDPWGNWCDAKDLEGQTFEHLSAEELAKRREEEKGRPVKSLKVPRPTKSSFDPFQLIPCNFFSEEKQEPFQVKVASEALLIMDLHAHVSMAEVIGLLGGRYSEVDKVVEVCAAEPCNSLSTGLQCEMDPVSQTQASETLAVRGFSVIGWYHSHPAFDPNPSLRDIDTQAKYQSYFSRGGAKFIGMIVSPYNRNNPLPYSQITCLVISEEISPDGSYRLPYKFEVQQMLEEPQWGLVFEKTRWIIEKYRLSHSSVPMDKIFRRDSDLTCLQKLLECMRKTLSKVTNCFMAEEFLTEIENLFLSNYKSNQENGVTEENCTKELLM
UniProt P03372: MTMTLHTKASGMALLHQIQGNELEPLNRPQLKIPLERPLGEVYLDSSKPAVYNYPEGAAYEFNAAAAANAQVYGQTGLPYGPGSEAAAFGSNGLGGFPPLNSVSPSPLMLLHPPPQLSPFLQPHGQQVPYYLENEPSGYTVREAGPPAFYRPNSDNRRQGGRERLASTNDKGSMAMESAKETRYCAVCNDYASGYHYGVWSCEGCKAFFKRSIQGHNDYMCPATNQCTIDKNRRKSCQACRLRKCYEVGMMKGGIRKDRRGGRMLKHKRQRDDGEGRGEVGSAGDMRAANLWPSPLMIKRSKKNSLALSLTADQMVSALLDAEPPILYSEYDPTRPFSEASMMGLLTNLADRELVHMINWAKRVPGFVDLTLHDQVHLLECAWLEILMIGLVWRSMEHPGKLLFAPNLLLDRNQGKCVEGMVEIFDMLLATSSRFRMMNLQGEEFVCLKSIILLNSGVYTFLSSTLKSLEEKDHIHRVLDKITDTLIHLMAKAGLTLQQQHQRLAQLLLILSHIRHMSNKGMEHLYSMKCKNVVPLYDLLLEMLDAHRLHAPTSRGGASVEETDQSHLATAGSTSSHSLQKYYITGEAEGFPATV

The target in test [2] is FLAG-tagged MYSM1-ΔSWIRM (human) (UniProt Q5VVJ2). The description is as above.

No constants are given. Whether binding was seen depends on the method and setting. Binding seen in cells or lysates may run through a third protein. A result given as binding can be weak or reduced; the word gives no strength.

As for “ERα (estrogen receptor alpha), ectopically expressed (from UniProt P03372 1-595)”, the binding result in test [1] and in test [2] was “binds” throughout.

Values taken from PMC10883278.
